PubChem BioAssay AID652243, Drosophila RNAi Screening Center | 2013

- Test: 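Fly genes required for human androgen receptor driven transcription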 (primary screen)
- System: Drosophila S2R+ cells
- Reagents: long dsRNA against Drosophila genes
- Duration: 72 h (48 h, then 24 h hormone)
- Treatment: synthetic androgen R1881 at 10 nM for 24 h
- Read-out: 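Firefly light from an androgen-responsive reporter and Renilla control light per well, raw and unnormalised, for each of two replicates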
- Reading the numbers: firefly reporter light: higher = more light from androgen-responsive reporter; Renilla control light: higher = more constitutive control signal (cell number, transfection)
- Rule for the call: 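Across duplicate plates, a knock-down whose log firefly/Renilla ratio shifted a set fold down or up from the GFP/LacZ control mean was a hit; the downward cut appears as both 1.5 and 3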
- Meaning of the calls: active = hit: reporter lowered or raised; inactive = no hit
The screen tested about 24,000 reagents; this is an unselected part of those that have a named target and a result. Over the whole deposit, 246 (1%) are marked active. 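Plates not normalised; calls are printed but the firefly/Renilla ratio behind them is not deposited; fold cut for lowering reported inconsistently.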 The raw values are shown without normalisation. Reagents against one gene are numbered here. A plus sign joins genes that one reagent is predicted to hit. Not given: the amount of reagent.

After knock-down of Ptp4E #1, the record shows firefly reporter light, replicate 1 = 50087; firefly reporter light, replicate 2 = 80985; Renilla control light, replicate 1 = 5.60e5; Renilla control light, replicate 2 = 5.17e5; inactive.
Ptp4E #2 showed inactive.
For Ptp4E #3, the values are inactive.
Against jar, the values are firefly reporter light, replicate 1 = 1.26e5; firefly reporter light, replicate 2 = 1.71e5; Renilla control light, replicate 1 = 1.55e6; Renilla control light, replicate 2 = 2.17e6; inactive.
After knock-down of CG17440 + Cfp1 the results were firefly reporter light, replicate 1 = 9.51e5; firefly reporter light, replicate 2 = 5.87e5; Renilla control light, replicate 1 = 1.39e6; Renilla control light, replicate 2 = 1.70e6; inactive.
Silencing of CG42486 + CG14933 gave: firefly reporter light, replicate 1 = 2.58e5; firefly reporter light, replicate 2 = 2.78e5; Renilla control light, replicate 1 = 5.41e5; Renilla control light, replicate 2 = 5.91e5; inactive.
Silencing of CG8202 gave: firefly reporter light, replicate 1 = 1.21e5; firefly reporter light, replicate 2 = 1.78e5; Renilla control light, replicate 1 = 1.83e6; Renilla control light, replicate 2 = 2.32e6; inactive.
For Ir52a the deposit lists firefly reporter light, replicate 1 = 74240; firefly reporter light, replicate 2 = 83473; Renilla control light, replicate 1 = 1.36e6; Renilla control light, replicate 2 = 1.36e6; inactive.
With knock-down of amrt #1, the screen gave firefly reporter light, replicate 1 = 3.02e5; firefly reporter light, replicate 2 = 3.63e5; Renilla control light, replicate 1 = 1.95e6; Renilla control light, replicate 2 = 2.75e6; inactive.
amrt #2 scored firefly reporter light, replicate 1 = 4.06e5; firefly reporter light, replicate 2 = 2.72e5; Renilla control light, replicate 1 = 8.72e5; Renilla control light, replicate 2 = 5.29e5; inactive.
Knock-down of Grip75 gave: firefly reporter light, replicate 1 = 1.83e5; firefly reporter light, replicate 2 = 1.29e5; Renilla control light, replicate 1 = 1.17e6; Renilla control light, replicate 2 = 1.02e6; inactive.
For bdl the deposit lists firefly reporter light, replicate 1 = 6.72e5; firefly reporter light, replicate 2 = 9.65e5; Renilla control light, replicate 1 = 1.72e6; Renilla control light, replicate 2 = 1.37e6; inactive.
With knock-down of Nhe3, the record shows firefly reporter light, replicate 1 = 1.92e5; firefly reporter light, replicate 2 = 1.93e5; Renilla control light, replicate 1 = 2.21e6; Renilla control light, replicate 2 = 1.91e6; inactive.
alpha-Man-Ic #1 showed firefly reporter light, replicate 1 = 8.17e5; firefly reporter light, replicate 2 = 9.45e5; Renilla control light, replicate 1 = 1.54e6; Renilla control light, replicate 2 = 1.69e6; inactive.
alpha-Man-Ic #2 scored firefly reporter light, replicate 1 = 2.39e5; firefly reporter light, replicate 2 = 2.45e5; Renilla control light, replicate 1 = 3.45e5; Renilla control light, replicate 2 = 6.77e5; inactive.
